Measured values reported in patent US20120214744A1 (L UNIVERSITE PARIS DESCARTES, published 2012).
These are yes or no findings as the source states them, for the method shown. In cells and extracts the contact can be indirect. Some binding calls cover weakened binding; strength is not graded here.

Chains of the proteins cited; added tags and fusions are not shown. Lines headed by an entry give the natural chain unless they say otherwise; changes in a name come on top.
UniProt P15311: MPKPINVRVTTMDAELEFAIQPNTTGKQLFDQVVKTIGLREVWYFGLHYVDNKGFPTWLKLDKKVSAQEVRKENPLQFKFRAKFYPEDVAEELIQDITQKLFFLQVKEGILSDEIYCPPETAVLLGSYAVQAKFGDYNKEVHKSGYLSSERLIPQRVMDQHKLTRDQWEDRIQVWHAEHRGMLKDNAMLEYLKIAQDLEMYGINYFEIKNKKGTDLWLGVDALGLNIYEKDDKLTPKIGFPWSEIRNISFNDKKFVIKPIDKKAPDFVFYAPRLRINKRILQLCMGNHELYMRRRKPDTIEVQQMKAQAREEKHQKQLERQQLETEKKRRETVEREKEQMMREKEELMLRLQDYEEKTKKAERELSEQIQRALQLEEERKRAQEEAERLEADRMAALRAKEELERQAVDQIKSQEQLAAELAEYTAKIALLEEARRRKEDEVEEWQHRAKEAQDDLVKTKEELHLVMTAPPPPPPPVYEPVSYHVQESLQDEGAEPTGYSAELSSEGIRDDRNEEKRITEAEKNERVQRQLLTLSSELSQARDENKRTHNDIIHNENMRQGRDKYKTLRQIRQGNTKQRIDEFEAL
UniProt P26038: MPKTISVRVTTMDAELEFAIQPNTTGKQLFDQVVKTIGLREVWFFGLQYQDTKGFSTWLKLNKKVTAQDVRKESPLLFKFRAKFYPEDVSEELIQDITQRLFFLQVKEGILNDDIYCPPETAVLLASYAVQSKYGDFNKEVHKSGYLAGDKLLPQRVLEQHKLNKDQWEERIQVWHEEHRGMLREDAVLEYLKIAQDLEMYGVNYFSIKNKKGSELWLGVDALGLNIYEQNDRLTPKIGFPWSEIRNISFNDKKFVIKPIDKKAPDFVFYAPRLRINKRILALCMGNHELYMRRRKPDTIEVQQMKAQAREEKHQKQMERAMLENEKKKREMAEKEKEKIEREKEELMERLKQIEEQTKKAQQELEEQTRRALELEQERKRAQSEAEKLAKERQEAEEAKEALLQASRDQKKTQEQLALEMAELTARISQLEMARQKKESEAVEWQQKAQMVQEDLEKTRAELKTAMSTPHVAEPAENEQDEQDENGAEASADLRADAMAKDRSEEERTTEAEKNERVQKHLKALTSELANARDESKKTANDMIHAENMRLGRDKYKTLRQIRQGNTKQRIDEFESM

What was measured:
[1] = target: endogenous ErbB2 (human) (UniProt P04626); test: GST pull-down from HBMEC lysates, western blot
[2] = target: T1, gD-tagged wild-type ErbB2 (human, UniProt P04626 23-1255); test: GST pull-down from HBMEC lysates, anti-gD western blot
T1 construct: whole, on cells; Expressed in HBMECs (human endothelial cells); also called gD-ErbB2-WT; gD-ErbB2 WT

[3] = target: endogenous ErbB2 (human) (UniProt P04626); test: GST pull-down, western blot
[4] = target: T1, gD-tagged wild-type ErbB2; test: GST pull-down, western blot
[5] = target: T1, gD-tagged wild-type ErbB2; test: co-immunoprecipitation (IP gD) from HBMECs, western blot

Row | Substance | binding [1] | binding [2] | binding [3] | binding [4] | binding [5]
1 | GST fused with the amino-terminal domain (FERM domain) of ezrin (from UniProt P15311 1-295) | binds | binds | binds | binds | –
2 | endogenous moesin of human endothelial cells (HBMECs) (from UniProt P26038 2-577) | – | – | – | – | binds
